# Data reported in PubChem BioAssay AID588590 (National Center for Advancing Translational Sciences (NCATS), 2011).
# Protein sequences, listed by entry. Tags and fused reporters are not part of them. Lines headed by an entry give the natural chain unless they say otherwise; changes in a name come on top.
# UniProt Q9UNA4: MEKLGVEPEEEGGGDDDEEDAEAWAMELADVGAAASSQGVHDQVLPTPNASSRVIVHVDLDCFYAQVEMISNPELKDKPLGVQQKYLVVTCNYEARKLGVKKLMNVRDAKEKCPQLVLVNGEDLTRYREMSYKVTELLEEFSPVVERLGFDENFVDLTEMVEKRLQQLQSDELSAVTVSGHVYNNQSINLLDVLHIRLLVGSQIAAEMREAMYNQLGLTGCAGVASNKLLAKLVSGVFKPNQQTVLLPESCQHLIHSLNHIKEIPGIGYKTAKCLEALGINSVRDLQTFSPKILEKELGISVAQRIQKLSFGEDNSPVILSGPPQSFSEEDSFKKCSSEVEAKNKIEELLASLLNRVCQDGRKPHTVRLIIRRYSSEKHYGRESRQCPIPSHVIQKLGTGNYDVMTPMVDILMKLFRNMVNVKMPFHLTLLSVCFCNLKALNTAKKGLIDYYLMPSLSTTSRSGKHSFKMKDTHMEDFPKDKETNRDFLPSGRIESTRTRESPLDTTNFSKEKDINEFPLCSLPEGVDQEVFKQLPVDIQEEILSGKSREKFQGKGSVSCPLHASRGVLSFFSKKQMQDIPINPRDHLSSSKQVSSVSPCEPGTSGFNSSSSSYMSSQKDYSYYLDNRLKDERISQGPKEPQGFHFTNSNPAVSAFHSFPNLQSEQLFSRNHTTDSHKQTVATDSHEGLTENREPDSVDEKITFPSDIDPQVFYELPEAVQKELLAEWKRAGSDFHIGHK
# Where “and” joins values, the source holds several entries; their conditions need not be identical. Equal values may be shown once. Hit rate of the full screen: of about 390,000 compounds, about 4,000 (1%) were called active. This list was built around the results that the source calls inconclusive (neither active nor inactive); the mix of calls is not that of the screen. Calls come from the whole dose curve; as a rule, active = well fitted inhibition curve with a large enough effect; inconclusive = small, poorly fitted or top-dose-only effect, or another doubt; inactive = no such curve, though single readings can be large or run the other way. Where the call is inconclusive, the potency comes from a doubtful curve fit.
# Biological target: DNA polymerase iota (Homo sapiens) (UniProt Q9UNA4)
# Experiment: qHTS for Inhibitors of Polymerase Iota
# Details: Pol iota fluorescent replication assay, 10 min; series mostly up to 115 µM; activity, negative = inhibition: at the top concentration
# Summary of the method: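 Pol iota at 10 nM preincubated 15 min with compounds at room temperature; reaction started with fluorescent substrate, 50 nM final. Fluorescence read kinetically at 0 and 10 min; buffer-only wells as negative control.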
# Potency is the fitted concentration of half-maximal effect.
Compound,Potency,"activity, negative = inhibition"
Cc1ccc(S(=O)(=O)NCCc2nnc3ccc(NCCCOC(C)C)nn23)cc1,"inconclusive: 89.1 µM [inhibitor, single point]",
O=C(O)c1ccccc1C(=O)c1ccc2oc(=O)[nH]c2c1,"inconclusive: 22.4 µM [inhibitor, full curve, poor fit]",
Cc1ccc(/C=C/C(=O)Nc2ccc([N+](=O)[O-])c(NC(=O)/C=C/c3ccc(C)o3)c2)o1,active: 25.1 µM,
Cc1ccc(-n2nc3c(=O)n(C(C)C(=O)NCCCc4ccccc4)nc(C)c3c2C)cc1 (stereo unspecified),"inconclusive: 89.1 µM [inhibitor, single point]",
CC(=O)c1ccc(NC(=O)CCCSc2nc(-c3ccco3)cc(C(F)(F)F)n2)cc1,,inactive: 2.07%
Cc1ccc(OCCCCn2cnc3ccccc32)c(C)c1,"inconclusive: 22.4 µM [inhibitor, partial curve, poor fit]",
CC(/C=N/NC(=O)c1cc(-c2ccc(C)s2)[nH]n1)=C\c1ccccc1,,inactive: 56.2%
Oc1ccc(NCc2ccccc2OCc2ccccc2F)cc1,active: 7.08 µM and active: 10 µM,
CSCc1nc2sc(C(=O)Nc3nc(C)cs3)c(C)c2c(=O)[nH]1,"inconclusive: 20 µM [inhibitor, full curve, poor fit]",
O=C(O)c1ccc(-n2c(O)c(C=C3N=c4ccccc4=N3)sc2=S)cc1,active: 2.24 µM,
FC(F)(F)c1ccc(CN2C[C@@H]3C(c4ccc(Cl)nc4)C4(c5cccnc5)CC3(C4)[C@H]2c2ccccc2)cc1 (stereo partly specified),"inconclusive: 25.1 µM [inhibitor, single point]",
CS(=O)(=O)c1ccc(C(=O)Nc2cc(-c3ccccc3)nn2-c2ccccc2)cc1,"inconclusive: 100 µM [inhibitor, partial curve, poor fit]",
COCCCNC(=O)c1ccc(-n2nc(C(F)(F)F)cc2-c2cccs2)cc1,"inconclusive: 20 µM [inhibitor, full curve, poor fit]",
Cc1cc(C)cc(N2C(=O)C3CCCN3C2=S)c1 (stereo unspecified),"inconclusive: 10 µM [inhibitor, full curve, poor fit]",
Nc1nc(C(=O)N2CCOCC2)nn1S(=O)(=O)c1ccccc1,"inconclusive: 35.5 µM [inhibitor, single point]",
O=C(CCc1nc2ccccc2c(=O)[nH]1)NCCN1C(=O)S/C(=C\c2ccc(Cl)cc2Cl)C1=O,"inconclusive: 22.4 µM [inhibitor, partial curve]",
COc1cc(N=c2ssnc2Cl)cc(OC)c1OC,"inconclusive: 3.98 µM [inhibitor, full curve, poor fit]",
Cc1nn2c(C)c(C(=O)NC(C)(C)C)cnc2c1-c1ccc(F)cc1,,inactive: 14.9%
Cc1ccc(OCC(=O)N2CCCc3ccccc32)cc1,"inconclusive: 89.1 µM [inhibitor, partial curve, poor fit]",
COC(=O)c1ccc(C2C(C(C)=O)=C(C)Nc3ncnn32)cc1 (stereo unspecified),"inconclusive: 0.631 µM [inhibitor, full curve, poor fit]",
Cc1nnc(NC2=NCCC2)s1,"inconclusive: 12.6 µM [inhibitor, partial curve, poor fit]",

# Single records, as listed above:
# O=C(O)c1ccccc1C(=O)c1ccc2oc(=O)[nH]c2c1 is listed as Potency: inconclusive: 22.4 µM [inhibitor, full curve, poor fit]
# Cc1ccc(OCC(=O)N2CCCc3ccccc32)cc1 is listed as Potency: inconclusive: 89.1 µM [inhibitor, partial curve, poor fit]

# Remaining list, next part

Compound,Potency,"activity, negative = inhibition"
CCCCNC(=O)c1cc2n(n1)CCCN(Cc1ccc(C)cc1)C2=O,"inconclusive: 89.1 µM [inhibitor, partial curve, poor fit]",
CC(C)(C)NC(=O)COC(=O)c1ccccc1Nc1ccc(SC(F)F)cc1,"inconclusive: 89.1 µM [inhibitor, partial curve, poor fit]",
Cc1cccc(-n2c(C)cc(/C=C3/C(=N)N4C(c5ccccc5)=CSC4=NC3=O)c2C)c1,,inactive: 5.13%
Cc1cc(C)c2nc(Cl)c(CN(Cc3ccco3)C(=O)Nc3ccccc3C)cc2c1,active: 89.1 µM,
O=C(/C=C/c1ccco1)NC(=S)NNC(=O)c1ccco1,"inconclusive: 39.8 µM [inhibitor, partial curve, poor fit]",
COc1ccccc1/C=C/C(=O)N1CCC(c2ccccc2)C1 (stereo unspecified),"inconclusive: 112 µM [inhibitor, partial curve, poor fit]",
COC(=O)c1sc(N2C(=O)C(O)=C(C(=O)c3ccc(C)o3)C2c2ccc(OC)c(OC)c2)nc1C (stereo unspecified),,inactive: 10.9%
O=C(CN(C(=O)CNS(=O)(=O)c1ccc(F)cc1)c1ccccc1)NCc1ccco1,,inactive: -11.1%
COc1cc2oc(=O)ccc2c(OC)c1CC(O)C(C)(C)O (stereo unspecified),,inactive: 4.58%
Cc1ccc(S(=O)(=O)n2ccc(=O)[nH]2)cc1,"inconclusive: 39.8 µM [inhibitor, single point]",
CCOC(=O)C[C@H]1c2ccc(C(F)(F)F)cc2S(=O)(=O)N1C(C)(C)C,"inconclusive: 44.7 µM [inhibitor, partial curve, poor fit]",
COc1cccc(CN(C)C(=O)[C@@H](NC(=O)c2ccc(C)cc2)C(C)C)c1,"inconclusive: 89.1 µM [inhibitor, partial curve, poor fit]",
O=C(CN1C(=O)S/C(=C\c2cc(Cl)c(O)c(Cl)c2)C1=O)Nc1ccccc1,"inconclusive: 25.1 µM [inhibitor, partial curve, poor fit]",
Cc1ccc(OCCNC(=O)c2ccccc2N)cc1,"inconclusive: 89.1 µM [inhibitor, single point]",
O=C(NC1CCCCC1)c1ccc([N+](=O)[O-])o1,,inactive: 154%
COc1cc2[nH]c(=O)n(CCC(=O)N3CCc4ccccc4C3)c(=O)c2cc1OC,"inconclusive: 39.8 µM [inhibitor, single point]",
Cc1csc(NC(=O)c2cc(-c3ccncc3)nc3ccccc23)n1,"inconclusive: 35.5 µM [inhibitor, full curve]",
Cc1cc(C(=O)CCC(=O)N(C)CC(=O)Nc2ccccc2Br)c(C)s1,,inactive: 3.89%
CCOc1ccc(-c2c(C)nn3c(C)c(C(=O)Nc4cc(C)cc(C)c4)cnc23)cc1OCC,"inconclusive: 89.1 µM [inhibitor, partial curve, poor fit]",
Cc1ccccc1C(=O)Nc1ccc(C(=O)N/N=C/c2ccc(F)cc2)cc1,,inactive: -5.83%
